Data published in patent US7078174.
No constants are given. Whether binding was seen depends on the method and setting. In cells and extracts the contact can be indirect. Some binding calls cover weakened binding; strength is not graded here. For some of these results: Sequences can lack the tags named with a protein.

By UniProt entry, the sequences of proteins in these tests, tags left out. Where a name states a change or a piece, a line headed by the entry shows the natural chain unless it says otherwise. Chains listed by the source or under a name are the forms on record and can include a tag or linker.
UniProt P83940: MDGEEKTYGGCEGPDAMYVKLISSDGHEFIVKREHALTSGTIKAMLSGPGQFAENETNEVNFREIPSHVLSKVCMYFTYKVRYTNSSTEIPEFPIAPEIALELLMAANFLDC
elongin C containing a myc epitope (P83940, form named): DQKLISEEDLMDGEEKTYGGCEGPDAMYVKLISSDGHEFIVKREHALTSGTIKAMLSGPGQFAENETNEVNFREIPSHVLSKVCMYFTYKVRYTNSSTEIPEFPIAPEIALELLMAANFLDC

Experiments:
[1] = target: elongin C (endogenous, murine M1 cells) (murine) (UniProt P83940); experiment: competition pull-down; competitor of immobilized biotinylated SOCS-1 SOCS box peptide
[2] = target: elongin C (endogenous, murine M1 cells) (murine) (UniProt P83940); experiment: competition pull-down from M1 extracts, 80 mM (so in the source) competing peptide, SDS-PAGE and silver stain
[3] = target: elongin C containing a myc epitope (mouse) (UniProt P83940); experiment: co-immunoprecipitation with anti-myc from transfected 293T cells, Western blot with anti-FLAG

Binder | binding [1] | binding [2] | binding [3]
TAPRVLSSLKHLCRKALRSFLTTYQVLALPIPKKMKEFLTYRTF (peptide, UniProt O54929 361-404, looked up) [WSB-2 SOCS box peptide] | binds | binds | –
N-terminally FLAG-tagged WSB-2 (protein) DYKDDDDKMEAGEEPLLLAELKPGRPHQFDWKSSCETWSVAFSPDGSWFAWSQGHCVVKLVPWPLEEQFIPKGFEAKSRSSKNDPKGRGSLKEKTLDCGQIVWGLAFSPWPSPPSRKLWARHHPQAPDVSCLILATGLNDGQIKIWEVQTGLLLLNLSGHQDVVRDLSFTPSGSLILVSASRDKTLRIWDLNKHGKQIQVLSGHLQWVYCCSISPDCSMLCSAAGEKSVFLWSMRSYTLIRKLEGHQSSVVSCDFSPDSALLVTASYDTSVIMWDPYTGERLRSLHHTQLEPTMDDSDVHMSSLRSVCFSPEGLYLATVADDRLLRIWALELKAPVAFAPMTNGLCCTFFPHGGIIATGTRDGHVQFWTAPRVLSSLKHLCRKALRSFLTTYQVLALPIPKKMKEFLTYRTF | – | – | binds
N-terminally FLAG-tagged SSB-1 (protein, mouse) DYKDDDDKMGQKVTGGIKTVDMRDPTYRPLKQELQGLDYCKPTRLDLLLDMPPVSYDVQLLHSWNNNDRSLNVFVKEDDKLIFHRHPVAQSTDAIRGKVGYTRGLHVWQITWAMRQRGTHAVVGVATADAPLHSVGYTTLVGNNHESWGWDLGRNRLYHDGKNQPSKTYPAFLEPDETFIVPDSFLVALDMDDGTLSFIVDGQYMGVAFRGLKGKKLYPVVSAVWGHCEIRMRYLNGLDPEPLPLMDLCRRSVRLALGKERLGAIPALPLPASLKAYLLYQ | – | – | binds
